# PubChem BioAssay AID1508588 – Peter MacCallum Cancer Centre | 2020
# Assay: 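Genome-wide search for knock-downs that heighten vemurafenib action in melanoma cells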 (primary screen)
# System: human WM266.4 melanoma cells (BRAF V600 mutant)
# Knock-down reagent: siRNA pool against human genes, 40 nM
# Time to read-out: 96 h from transfection to read-out
# Challenge: vemurafenib 300 nM (about IC25), added 48 h after transfection, for 48 h; comparison arm got DMSO vehicle only
# Detection: 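Cell gain (DAPI nuclei at end minus before drug, mean of two replicates) and medium lactate by absorbance per cell, both as ratio to non-targeting siRNA, also grouped into fold-change classes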
# Reading the numbers: cell gain with vemurafenib: higher = more cell gain than with non-targeting siRNA; lactate per cell with vemurafenib: higher = more lactate made per cell
# Hit rule: 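a knock-down counts as enhancing when its fold-change classes with vehicle and with vemurafenib, taken together, show a stronger drug effect on cell gain or lactate per cell; exact class pairs not stated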
# Meaning of the calls: active = enhances vemurafenib effect; inactive = no enhancement seen
# In all, the deposit lists about 18,000 reagents; shown is a random part of them. 790 of all reagents (4.4%) were called active. 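Calls rest on a combination of fold-change classes in drug and vehicle arms, not all shown here.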
Target gene,cell gain with vemurafenib,lactate per cell with vemurafenib,Outcome
CTAG1B,0.17,1.17,inactive
MYBL1,0.6,1.39,inactive
ARAP1,0.2,3.17,inactive
IFI27,0.58,0.84,inactive
HRC,0.99,1,inactive
TSN,0.87,0.4,inactive
LMTK2,0.75,0.66,inactive
HEPN1,0.43,1.08,inactive
DDX6,0.43,1.07,inactive
CXXC1,0.11,1.6,inactive
CCNT2,0.45,1.43,inactive
ACRV1,0.51,0.64,active
BAGE4,0.4,1.94,inactive
COL24A1,0.58,0.78,inactive
WWTR1,0.67,0.43,inactive
CCL23,0.71,0.75,inactive
FAM199X,0.72,0.5,inactive
EEF1AKMT2,0.66,0.64,inactive
PIP4K2A,0.77,1.48,inactive
CD1A,0.96,0.48,active
NPC1,0.79,0.77,inactive
MAN1C1,0.64,1.07,inactive
RBM15,0.66,-0.11,inactive
SH3GL1,0.58,1.2,inactive
MCEMP1,-0.11,0.57,active
NF1,1,0.76,inactive
FBLN1,0.68,1.06,inactive
PTX3,0.26,0.85,inactive
TERT,0.73,0.72,inactive
CLC,0.26,0.29,inactive
EVI5,0.83,0.46,active
MEIOB,0.64,0.86,inactive
GDPD1,0.9,0.72,inactive
CGREF1,0.33,1.2,inactive
KYAT3,0.02,1.38,inactive
CTSB,0.22,1.18,inactive
HMGN1,0.07,2.99,inactive
FFAR1,0.91,0.57,inactive
CALCRL,0.69,0.48,inactive
DNAJB1,0.67,1.17,inactive
DROSHA,0.54,0.92,inactive
GPN2,0.77,0.74,inactive
BOD1L1,1.11,0.64,inactive
GPR26,0.48,0.88,inactive
WFDC6,0.57,1.88,inactive
KLF5,1.09,1.53,inactive
OR8K5,0.48,1.48,inactive
EFCAB7,0.25,1.82,inactive
FRK,0.7,0.98,inactive
ARIH2,0.92,0.8,inactive

7 consecutive reagents already listed, quoted:
Target gene,cell gain with vemurafenib,lactate per cell with vemurafenib,Outcome
TSN,0.87,0.4,inactive
LMTK2,0.75,0.66,inactive
HEPN1,0.43,1.08,inactive
DDX6,0.43,1.07,inactive
CXXC1,0.11,1.6,inactive
CCNT2,0.45,1.43,inactive
ACRV1,0.51,0.64,active

Continued:
Target gene,cell gain with vemurafenib,lactate per cell with vemurafenib,Outcome
KRT3,0.49,0.95,inactive
PRCC,0.87,1.11,inactive
TMEM109,0.25,1.18,inactive
CHRNB4,0.63,0.83,inactive
KCTD14,0.67,0.98,inactive
SFMBT1,1.5,0.56,inactive
DERL3,0.42,1.4,inactive
H2AC13,0.27,0.82,inactive
DAD1,0.48,0.9,inactive
THAP5,0.69,0.82,inactive
LMF2,0.58,0.86,inactive
DHX16,0.42,0.58,inactive
THOC2,0.64,0.58,inactive
NRDC,0.32,1.44,inactive
INA,0.45,1.42,inactive
SLC23A1,1.29,0.64,inactive
IL3RA,0.64,0.97,inactive
BTK,0.31,0.39,active
ALG8,0.98,0.28,inactive
PTCHD4,-0.01,3.39,inactive
TXNL4B,0.71,1.18,inactive
KLF15,0.85,1.07,inactive
ARF5,0.82,1.06,inactive
POU2F1,0.88,1.12,inactive
SEC24A,1.47,0.86,inactive
DRC12,0.87,1.23,inactive
CCNE1,0.37,1.06,inactive
MRPL9,0.37,0.34,active
CYP3A4,0.46,1.24,inactive
CDK10,0.57,1.2,inactive
PIAS3,0.98,0.73,inactive
LRRC56,0.74,0.78,inactive
MYO19,0.35,1.81,inactive
SLC41A1,0.81,0.95,inactive
